Here are results for six compounds from the supplement of paper PMC7024190.

The structures appear in SMILES notation. Structures can show the parent of a compound that is named as a salt. This is one part of the list. Single values are uncertain here, since repeats match poorly.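 Human embryonic kidney cells were transiently transfected with a plasmid bearing a Renilla luciferase gene under the HSV-TK promoter. This first-round screen tests roughly ten thousand compounds for ones that increase reporter output.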

In this assay the test system is HEK 293FT. Briefly: log relative Renilla luciferase luminescence (reporter expression vs reference, reference not stated) (log (base not stated)); higher = higher recombinant reporter expression. Particulars: 10 µM; time after transfection 48 h.
Turning to `OCC(CO)N[C@H]1C[C@](O)(CO)[C@@H](O)[C@H](O)[C@H]1O` [Voglibose], the log is 0.00213.

Turning to `CC1(C)CC(=O)C(C2C3=C(CC(C)(C)CC3=O)Oc3ccccc32)C(=O)C1` (stereo unspecified), the log was -0.0311.

On to `COc1ccc2[nH]c([S+]([O-])Cc3ncc(C)c(OC)c3C)nc2c1` (stereo unspecified) [Omeprazole], for which the log was -0.19.

On to `CC(CCc1ccc(O)cc1)NCCc1ccc(O)c(O)c1` (stereo unspecified) [Dobutamine hydrochloride], for which the log was -0.0916.

For the compound `COc1cc2c(cc1OC)-c1cc3nc4ccccc4nc3n1C(C)(C)C2`, the log is -0.0108.

`Cc1c(OCC(F)(F)F)ccnc1C[S+]([O-])c1nc2ccccc2[nH]1` (stereo unspecified) [Lansoprazole]: the log is -0.287.
